Experiment [1] has as its target T1, wrmScarlet::TDPT-1 (C. elegans) (UniProt Q9XWG3).
T1 sequence: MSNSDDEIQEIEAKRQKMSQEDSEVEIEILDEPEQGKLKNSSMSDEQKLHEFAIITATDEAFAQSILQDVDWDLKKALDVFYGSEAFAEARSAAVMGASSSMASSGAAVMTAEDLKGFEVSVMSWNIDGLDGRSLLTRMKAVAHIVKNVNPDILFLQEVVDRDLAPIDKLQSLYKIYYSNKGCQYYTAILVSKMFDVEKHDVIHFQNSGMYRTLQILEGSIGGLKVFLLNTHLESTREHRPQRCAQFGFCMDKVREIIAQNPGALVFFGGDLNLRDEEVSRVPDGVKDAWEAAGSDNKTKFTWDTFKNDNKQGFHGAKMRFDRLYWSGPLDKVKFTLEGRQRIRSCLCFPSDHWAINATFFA
Nature of the experiment: co-IP; reciprocal: IPs of wrmScarlet::TDPT-1 from worm lysates (Fig. S5A).

Protein sequences, listed by entry. Tags and fused reporters are not part of them. Lines headed by an entry give the natural chain unless they say otherwise; changes in a name come on top.
UniProt Q23670: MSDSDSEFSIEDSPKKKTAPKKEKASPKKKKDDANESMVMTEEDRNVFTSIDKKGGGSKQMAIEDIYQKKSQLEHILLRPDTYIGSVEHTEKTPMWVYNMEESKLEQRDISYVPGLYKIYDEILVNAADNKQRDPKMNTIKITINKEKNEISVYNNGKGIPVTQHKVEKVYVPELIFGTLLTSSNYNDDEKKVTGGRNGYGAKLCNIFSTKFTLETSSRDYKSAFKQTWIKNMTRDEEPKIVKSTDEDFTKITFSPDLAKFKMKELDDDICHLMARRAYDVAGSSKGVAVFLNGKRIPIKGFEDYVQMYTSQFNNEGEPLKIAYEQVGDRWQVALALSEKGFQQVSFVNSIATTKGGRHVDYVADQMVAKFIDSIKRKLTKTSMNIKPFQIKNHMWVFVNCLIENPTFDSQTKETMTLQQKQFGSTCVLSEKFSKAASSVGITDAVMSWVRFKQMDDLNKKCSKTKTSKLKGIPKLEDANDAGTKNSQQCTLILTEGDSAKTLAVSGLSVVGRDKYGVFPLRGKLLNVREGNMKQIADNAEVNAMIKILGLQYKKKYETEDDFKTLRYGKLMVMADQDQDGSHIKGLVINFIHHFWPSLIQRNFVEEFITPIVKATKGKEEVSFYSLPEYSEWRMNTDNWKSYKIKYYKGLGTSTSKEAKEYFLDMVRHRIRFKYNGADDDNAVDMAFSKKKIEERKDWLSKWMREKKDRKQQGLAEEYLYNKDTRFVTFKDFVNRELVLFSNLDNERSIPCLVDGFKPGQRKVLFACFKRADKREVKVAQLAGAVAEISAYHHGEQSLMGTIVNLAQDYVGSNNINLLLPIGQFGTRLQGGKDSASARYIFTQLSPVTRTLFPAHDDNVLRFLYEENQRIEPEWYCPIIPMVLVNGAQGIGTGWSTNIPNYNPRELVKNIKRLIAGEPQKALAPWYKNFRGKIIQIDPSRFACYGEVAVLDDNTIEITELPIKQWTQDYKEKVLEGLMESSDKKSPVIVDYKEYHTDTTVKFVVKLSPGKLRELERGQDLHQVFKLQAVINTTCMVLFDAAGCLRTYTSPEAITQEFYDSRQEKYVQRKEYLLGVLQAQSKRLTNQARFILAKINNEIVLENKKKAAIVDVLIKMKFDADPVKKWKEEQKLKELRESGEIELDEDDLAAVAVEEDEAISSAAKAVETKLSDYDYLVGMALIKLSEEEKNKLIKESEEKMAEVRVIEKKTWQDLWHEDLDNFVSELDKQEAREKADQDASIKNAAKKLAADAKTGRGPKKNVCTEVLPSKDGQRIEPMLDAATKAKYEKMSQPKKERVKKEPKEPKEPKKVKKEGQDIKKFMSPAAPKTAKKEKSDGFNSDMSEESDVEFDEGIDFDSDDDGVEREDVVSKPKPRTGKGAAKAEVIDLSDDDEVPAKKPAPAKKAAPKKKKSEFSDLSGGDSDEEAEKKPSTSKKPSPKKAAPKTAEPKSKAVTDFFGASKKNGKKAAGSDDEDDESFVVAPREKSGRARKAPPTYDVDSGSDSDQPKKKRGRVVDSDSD

Experiment [2] has as its target TOP-2 [R828C]::3xFLAG (C. elegans) (UniProt Q23670). Nature of the experiment: co-IP; whole-worm lysates (1.5 mg) on anti-FLAG magnetic agarose beads, 1 h at 4 °C, wash buffer 10 mM Tris/Cl pH 7.5, 150 mM NaCl, 0.5 mM EDTA; TOP-2::3xFLAG precipitated, wrmScarlet::TDPT-1 detected by anti-RFP immunoblot. On the technique in general: Immunoblotting shows a protein as a band on a membrane.

The target of experiment [3] is TOP-2::3xFLAG (C. elegans) (UniProt Q23670). The experiment is described as above.

In article PMC11261448 one finds binding data, which are given here for three molecules.

These are yes or no findings as the source states them, for the method shown. Binding seen in cells or lysates may run through a third protein. Some binding calls cover weakened binding; strength is not graded here.

“TOP-2::3xFLAG (from UniProt Q23670 1-1520)”: the binding entry in experiment [1] is listed as “binds”.

B1: wrmScarlet::TDPT-1 (protein, UniProt Q9XWG3 1-362)
chain: MSNSDDEIQEIEAKRQKMSQEDSEVEIEILDEPEQGKLKNSSMSDEQKLHEFAIITATDEAFAQSILQDVDWDLKKALDVFYGSEAFAEARSAAVMGASSSMASSGAAVMTAEDLKGFEVSVMSWNIDGLDGRSLLTRMKAVAHIVKNVNPDILFLQEVVDRDLAPIDKLQSLYKIYYSNKGCQYYTAILVSKMFDVEKHDVIHFQNSGMYRTLQILEGSIGGLKVFLLNTHLESTREHRPQRCAQFGFCMDKVREIIAQNPGALVFFGGDLNLRDEEVSRVPDGVKDAWEAAGSDNKTKFTWDTFKNDNKQGFHGAKMRFDRLYWSGPLDKVKFTLEGRQRIRSCLCFPSDHWAINATFFA
Consider B1, for which the binding entry in experiment [2] and in experiment [3] was “binds” in each case.

B2: wrmScarlet::TDPT-1 [G117R] (protein, UniProt Q9XWG3 1-362)
chain: MSNSDDEIQEIEAKRQKMSQEDSEVEIEILDEPEQGKLKNSSMSDEQKLHEFAIITATDEAFAQSILQDVDWDLKKALDVFYGSEAFAEARSAAVMGASSSMASSGAAVMTAEDLKRFEVSVMSWNIDGLDGRSLLTRMKAVAHIVKNVNPDILFLQEVVDRDLAPIDKLQSLYKIYYSNKGCQYYTAILVSKMFDVEKHDVIHFQNSGMYRTLQILEGSIGGLKVFLLNTHLESTREHRPQRCAQFGFCMDKVREIIAQNPGALVFFGGDLNLRDEEVSRVPDGVKDAWEAAGSDNKTKFTWDTFKNDNKQGFHGAKMRFDRLYWSGPLDKVKFTLEGRQRIRSCLCFPSDHWAINATFFA
For the molecule B2, the binding entry in experiment [2] and in experiment [3] was “binds” in each case.
